The record followed here is PMC9404779, “Oxidative Implications of Substituting a Conserved Cysteine Residue in Sugar Beet Phytoglobin BvPgb 1.2” (Antioxidants, 2022).

The target in this experiment is T1, Equine myoglobin (Mb) (equine), P68082.
T1 chain: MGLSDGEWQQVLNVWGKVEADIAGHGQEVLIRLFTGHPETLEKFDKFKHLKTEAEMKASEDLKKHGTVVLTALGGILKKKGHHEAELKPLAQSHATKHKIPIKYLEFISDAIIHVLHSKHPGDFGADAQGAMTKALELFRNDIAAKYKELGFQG
Put plainly: SEC; analytical SEC, Superdex 75 10/300 GL, 50 mM NaP with 150 mM NaCl pH 7.0, 100 µL of 1 mg/mL protein; MW from retention volume on a calibration curve; dimer of monomers; both purified. Particulars: remark: other sources report otherwise. (In general: In gel filtration, larger molecules generally elute earlier.)

These are yes or no findings as the source states them, for the method shown.

B1: Equine myoglobin (Mb), P68082 1-154 (protein)
chain: MGLSDGEWQQVLNVWGKVEADIAGHGQEVLIRLFTGHPETLEKFDKFKHLKTEAEMKASEDLKKHGTVVLTALGGILKKKGHHEAELKPLAQSHATKHKIPIKYLEFISDAIIHVLHSKHPGDFGADAQGAMTKALELFRNDIAAKYKELGFQG
For B1, the binding entry was “no binding (tested: 1 mg/mL)”.
